This test has as its target FLAG-tagged nucleolin (UniProt P19338). The experiment in a line: pull-down; FLAG-tagged nucleolin expressed in HeLa cells, precipitated from cell extracts by FLAG antibody and incubated with isolated GST or GST fusion proteins; FLAG and GST specific immunoblot; both purified. In general terms: Immunoblotting shows a protein as a band on a membrane.

Amino acid sequences for entries named in this document (tags omitted).
UniProt P19338: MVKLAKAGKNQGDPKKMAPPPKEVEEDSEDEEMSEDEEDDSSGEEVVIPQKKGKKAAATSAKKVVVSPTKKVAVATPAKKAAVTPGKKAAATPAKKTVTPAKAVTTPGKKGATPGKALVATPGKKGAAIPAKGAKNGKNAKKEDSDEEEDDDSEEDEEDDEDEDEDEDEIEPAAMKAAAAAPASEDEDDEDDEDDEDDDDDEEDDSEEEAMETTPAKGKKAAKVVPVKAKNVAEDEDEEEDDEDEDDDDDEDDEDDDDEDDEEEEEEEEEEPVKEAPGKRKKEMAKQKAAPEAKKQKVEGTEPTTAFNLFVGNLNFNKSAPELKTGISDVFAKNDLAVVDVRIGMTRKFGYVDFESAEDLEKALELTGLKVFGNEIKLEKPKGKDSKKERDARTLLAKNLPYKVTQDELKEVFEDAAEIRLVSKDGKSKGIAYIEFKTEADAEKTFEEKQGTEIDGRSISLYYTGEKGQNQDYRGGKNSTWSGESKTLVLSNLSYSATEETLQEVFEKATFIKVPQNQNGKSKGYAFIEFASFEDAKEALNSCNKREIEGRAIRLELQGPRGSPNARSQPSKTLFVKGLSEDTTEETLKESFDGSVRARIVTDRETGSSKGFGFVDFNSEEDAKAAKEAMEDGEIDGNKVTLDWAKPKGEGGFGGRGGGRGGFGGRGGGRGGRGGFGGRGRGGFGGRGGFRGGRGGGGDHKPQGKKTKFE

These are yes or no findings as the source states them, for the method shown. Some results given as binding are weak or reduced against the parent protein; the word gives no strength. Where a sequence is shown, tags or fusion partners need not be part of it.

One molecule from PMC7969625 can be followed below.

B1: GST-C20orf204-189AA (protein, UniProt A0A1B0GTL2 24-189)
chain: YSPACSVPDVLRHYRAIIFEDLQAAVKWGGAGAEKTRPGSRHFHFIQKNLTRPGSSGRRGRPRASCGAQKEHSILLSISSLGRTLRGAVAGGRRGALERAAWTVAVRTEAVMRRHCRTLRQRSRRPKMRPARRRGGRRQLLLRALDAVATCWEKLFALRAPASRDS
On to B1, for which the binding entry is listed as “binds”.
